PubChem BioAssay AID720710, VTT Finland, 2013
This is an unselected part of about 1,380 reagents tested. 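One array per condition without replicates; hydroxyurea arrays received 2 mM for 16 h plus 3 h recovery.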 Reagents against one gene are numbered here. Further read-outs or replicates are left out here.

Aim: 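siRNAs sensitising CCNE1-overexpressing U-2 OS cells to replication stress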 (primary screen)
Cells: human U-2 OS bone cancer cells, parental and a cyclin E (CCNE1) overexpressing line
Reagents: single siRNA against human genes, 1 µM siRNA in the printed spot mix
Duration: 67 h
Conditions: half the arrays: hydroxyurea 2 mM for 16 h, then 3 h recovery; other arrays untreated
Measurement: 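DNA synthesis measured as imaged EdU uptake per nucleus (DAPI) at 67 h, normalised to subgrid median and given as z-score versus non-targeting controls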
Direction: EdU z-score, cyclin E line, hydroxyurea: higher = more DNA synthesis than non-targeting controls

For PHB1 #1, the values are EdU z-score, cyclin E line, hydroxyurea -0.508.
With knock-down of PHB1 #2, the screen gave EdU z-score, cyclin E line, hydroxyurea 1.62.
Silencing of H4C15 #1 gave: EdU z-score, cyclin E line, hydroxyurea 1.05.
After knock-down of H4C15 #2, the screen gave EdU z-score, cyclin E line, hydroxyurea 1.43.
RNF216 #1 gave EdU z-score, cyclin E line, hydroxyurea -3.64.
Depletion of RNF216 #2 gave: EdU z-score, cyclin E line, hydroxyurea 0.0861.
Knock-down of NEMF #1 gave: EdU z-score, cyclin E line, hydroxyurea -0.996.
With knock-down of NEMF #2, the record shows EdU z-score, cyclin E line, hydroxyurea -0.292.
After knock-down of SMUG1 #1, the record shows EdU z-score, cyclin E line, hydroxyurea 0.382.
SMUG1 #2 scored EdU z-score, cyclin E line, hydroxyurea 0.691.
FOXP3 #1 gave EdU z-score, cyclin E line, hydroxyurea -0.72.
Depletion of FOXP3 #2 gave: EdU z-score, cyclin E line, hydroxyurea 0.892.

Targets above whose gene name begins with H or h:
H4C15 #1: EdU z-score, cyclin E line, hydroxyurea = 1.05
H4C15 #2: EdU z-score, cyclin E line, hydroxyurea = 1.43

The list goes on.
Depletion of CHD5 #1 gave: EdU z-score, cyclin E line, hydroxyurea -0.621.
CHD5 #2 showed EdU z-score, cyclin E line, hydroxyurea 2.59.
Depletion of LOC727726 #1 came out at: EdU z-score, cyclin E line, hydroxyurea 0.634.
LOC727726 #2 showed EdU z-score, cyclin E line, hydroxyurea 1.3.
With knock-down of RNF217 #1, the screen gave EdU z-score, cyclin E line, hydroxyurea -0.486.
RNF217 #2 showed EdU z-score, cyclin E line, hydroxyurea 0.477.
HMGN2 #1 scored EdU z-score, cyclin E line, hydroxyurea -2.32.
HMGN2 #2 scored EdU z-score, cyclin E line, hydroxyurea -1.06.
With knock-down of MCM3 #1 the results were EdU z-score, cyclin E line, hydroxyurea -0.978.
Against MCM3 #2, the entry reads EdU z-score, cyclin E line, hydroxyurea 0.539.
